PubChem BioAssay AID1224831 | NIAID | 2016
Here is a random part of about 3,500 reagents. 731 of all reagents (21%) count as active. 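Active means either lowered or raised reporter signal; the gene-median score did not drive the per-siRNA calls.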 Unmarked entries are inactive. Reagents against one gene are numbered here.

Aim: 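Confirming genome-wide hits on LPS-triggered TNF-alpha induction with independent siRNA sequences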 (follow-up of hits)
Cell system: human THP-1 B5 monocytic leukaemia cells carrying a TNF promoter luciferase reporter, made macrophage-like with PMA
Knock-down reagent: single siRNA against human genes, 50 nM
Timing: about 68 h of knock-down, then 4 h LPS
Conditions: LPS (Salmonella minnesota, TLR-grade) at 10 ng/ml for 4 h; PMA 5 ng/ml present during knock-down
Detection: 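TNF promoter reporter read as dual luciferase ratio after 4 h LPS, normalised per plate to its median, given as replicate mean robust z-score per siRNA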
Scale: TNF reporter z-score: higher = stronger LPS-induced TNF reporter signal; z-score, median over gene's siRNAs: higher = stronger TNF reporter signal across the gene's siRNAs
Call rule: 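Active when the replicate mean z-score is about -1 or lower, or about 1.5 or higher; lowered and raised TNF reporter signal both count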
Calls: active = changed TNF reporter (either direction); inactive = little change

Gene | reagent no. | TNF reporter z-score, replicate mean | z-score, median over gene's siRNAs
PANK4 | 1 | 0.53 | 0.14
PANK4 | 2 | -0.54 | 0.14
PANK4 | 3 | -0.53 | 0.14
PANK4 | 4 | 0.6 | 0.14
PANK4 | 5 | -0.25 | 0.14
PANK4 | 6 | 1.52 (active) | 0.14
SCGB1D2 | 1 | 0.68 | 0.87
SCGB1D2 | 2 | 1.39 | 0.87
SCGB1D2 | 3 | 1.06 | 0.87
SCGB1D2 | 4 | -0.53 | 0.87
SCGB1D2 | 5 | 0.2 | 0.87
SCGB1D2 | 6 | 1.92 (active) | 0.87
SMARCE1 | 1 | 0.35 | 0.495
SMARCE1 | 2 | 0.92 | 0.495
SMARCE1 | 3 | 0.32 | 0.495
SMARCE1 | 4 | -0.9 | 0.495
SMARCE1 | 5 | 0.9 | 0.495
SMARCE1 | 6 | 0.64 | 0.495
MR1 | 1 | 1.42 | -0.165
MR1 | 2 | -0.08 | -0.165
MR1 | 3 | 0.66 | -0.165
MR1 | 4 | -0.25 | -0.165
MR1 | 5 | -0.81 | -0.165
MR1 | 6 | -0.36 | -0.165
AURKB | 1 | -0.3 | 0.09
AURKB | 2 | 1.29 | 0.09
AURKB | 3 | 0.71 | 0.09
AURKB | 4 | -0.64 | 0.09
AURKB | 5 | 0.48 | 0.09
AURKB | 6 | -0.64 | 0.09
LHX2 | 1 | 0.77 | 0.24
LHX2 | 2 | 0.23 | 0.24
LHX2 | 3 | -0.83 | 0.24
LHX2 | 4 | 5.03 (active) | 0.24
LHX2 | 5 | -0.28 | 0.24
LHX2 | 6 | 0.25 | 0.24
PLAGL2 | 1 | 0.84 | 0.395
PLAGL2 | 2 | -1.19 (active) | 0.395
PLAGL2 | 3 | -0.98 | 0.395
PLAGL2 | 4 | -0.05 | 0.395
PLAGL2 | 5 | 1.25 | 0.395
PLAGL2 | 6 | 1.34 | 0.395
GPX4 | 1 | 0.64 | -0.19
GPX4 | 2 | -0.36 | -0.19
GPX4 | 3 | -0.5 | -0.19
GPX4 | 4 | 0.09 | -0.19
GPX4 | 5 | -0.37 | -0.19
GPX4 | 6 | -0.02 | -0.19
C9orf72 | 1 | -0.58 | -0.625
C9orf72 | 2 | -0.67 | -0.625
C9orf72 | 3 | -1.23 (active) | -0.625
C9orf72 | 4 | -0.27 | -0.625
C9orf72 | 5 | -0.19 | -0.625
C9orf72 | 6 | -0.96 | -0.625
BMPR2 | 1 | -0.79 | -0.245
BMPR2 | 2 | -0.45 | -0.245
BMPR2 | 3 | -1.08 (active) | -0.245
BMPR2 | 4 | 0.61 | -0.245
BMPR2 | 5 | 0.48 | -0.245
BMPR2 | 6 | -0.04 | -0.245

Hits (from the list above):
Gene | reagent no. | TNF reporter z-score, replicate mean | z-score, median over gene's siRNAs
PANK4 | 6 | 1.52 (active) | 0.14
SCGB1D2 | 6 | 1.92 (active) | 0.87
LHX2 | 4 | 5.03 (active) | 0.24
PLAGL2 | 2 | -1.19 (active) | 0.395
C9orf72 | 3 | -1.23 (active) | -0.625
BMPR2 | 3 | -1.08 (active) | -0.245
